Data source: PubChem BioAssay AID1259308 (NCATS, 2017)
Purpose: 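Knock-downs that increase output of a recombinant reporter protein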 (primary screen). System: human HEK293 embryonic kidney cells stably expressing firefly luciferase (HEK-CMV-Luc2-Hygro). Reagent: single siRNA against human genes, 0.8 pmol siRNA per well. Timing: 72 h. Detection: 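Reporter luminescence and viable-cell signal on separate replicate plates, given as percent of non-targeting control and median/MAD z-scores, plus per-cell luciferase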. Scale: total luciferase, z-score and total luciferase, % of control: higher = more reporter protein produced. Active means: 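Active when the median/MAD z-score for overall luciferase is greater than 3; a gene was taken forward for validation with new siRNAs if at least two of its three siRNAs passed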. Calls: active = raised luciferase; inactive = no rise.
Shown is a random part of about 59,000 reagents. About 1,510 of all reagents (2.6%) count as active. 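Calls use total luciferase alone and ignore viability, so some active siRNAs may act by altering cell number.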 The numbers tell different reagents against one gene apart. Not all columns of the deposit are shown.

Silencing of SH3GL2 (GeneID 6456) #1 came out at: total luciferase, z-score -0.423; total luciferase, % of control 73.5; inactive.
With knock-down of SH3GL2 (GeneID 6456) #2 the results were total luciferase, z-score 1; total luciferase, % of control 102; inactive.
Against SH3GL2 (GeneID 6456) #3, the entry reads total luciferase, z-score 0.125; total luciferase, % of control 84.4; inactive.
Against ESRP2 (GeneID 80004) #1, the entry reads total luciferase, z-score -0.0535; total luciferase, % of control 80.8; inactive.
ESRP2 (GeneID 80004) #2 gave total luciferase, z-score 1.45; total luciferase, % of control 111; inactive.
Against ESRP2 (GeneID 80004) #3 the deposit lists total luciferase, z-score -0.165; total luciferase, % of control 78.6; inactive.
Against LINC01139 (GeneID 339535) #1, the values are total luciferase, z-score -0.489; total luciferase, % of control 72.2; inactive.
Knock-down of LINC01139 (GeneID 339535) #2 came out at: total luciferase, z-score -0.138; total luciferase, % of control 79.1; inactive.
For LINC01139 (GeneID 339535) #3 the deposit lists total luciferase, z-score -3.01; total luciferase, % of control 22; inactive.
Depletion of TDRG1 (GeneID 732253) #1 resulted in: total luciferase, z-score -0.389; total luciferase, % of control 74.1; inactive.
After knock-down of TDRG1 (GeneID 732253) #2, the record shows total luciferase, z-score -0.308; total luciferase, % of control 75.8; inactive.
For TDRG1 (GeneID 732253) #3 the deposit lists total luciferase, z-score 1.33; total luciferase, % of control 108; inactive.
Knock-down of LOC340089 (GeneID 340089) #1 gave: total luciferase, z-score -1.22; total luciferase, % of control 57.6; inactive.
Against LOC340089 (GeneID 340089) #2, the values are total luciferase, z-score 0.21; total luciferase, % of control 86.1; inactive.
LOC340089 (GeneID 340089) #3 scored total luciferase, z-score -0.252; total luciferase, % of control 76.9; inactive.
For MRTO4 (GeneID 51154) #1, the entry reads total luciferase, z-score -0.0325; total luciferase, % of control 81.2; inactive.
Depletion of MRTO4 (GeneID 51154) #2 gave: total luciferase, z-score -1.34; total luciferase, % of control 55.2; inactive.
Against MRTO4 (GeneID 51154) #3, the values are total luciferase, z-score 0.26; total luciferase, % of control 87.1; inactive.
For CWC25 (GeneID 54883) #1, the values are total luciferase, z-score 0.461; total luciferase, % of control 91.1; inactive.
CWC25 (GeneID 54883) #2 scored total luciferase, z-score 0.983; total luciferase, % of control 101; inactive.
Against CWC25 (GeneID 54883) #3 the deposit lists total luciferase, z-score 0.848; total luciferase, % of control 98.8; inactive.
After knock-down of PRCP (GeneID 5547) #1, the record shows total luciferase, z-score -0.438; total luciferase, % of control 73.2; inactive.
PRCP (GeneID 5547) #2 scored total luciferase, z-score 0.927; total luciferase, % of control 100; inactive.
Knock-down of PRCP (GeneID 5547) #3 came out at: total luciferase, z-score -1.78; total luciferase, % of control 46.6; inactive.
With knock-down of ANAPC1P2 (GeneID 285074) #1 the results were total luciferase, z-score -1.4; total luciferase, % of control 54; inactive.
Against ANAPC1P2 (GeneID 285074) #2 the deposit lists total luciferase, z-score -0.311; total luciferase, % of control 75.7; inactive.
Depletion of ANAPC1P2 (GeneID 285074) #3 gave: total luciferase, z-score -1.85; total luciferase, % of control 45; inactive.
For FOXD2 (GeneID 2306) #1 the deposit lists total luciferase, z-score 0.603; total luciferase, % of control 93.9; inactive.
FOXD2 (GeneID 2306) #2 gave total luciferase, z-score 0.817; total luciferase, % of control 98.1; inactive.
Depletion of FOXD2 (GeneID 2306) #3 gave: total luciferase, z-score -1.25; total luciferase, % of control 57.1; inactive.
CRNN (GeneID 49860) #1 scored total luciferase, z-score 0.517; total luciferase, % of control 92.2; inactive.
Knock-down of CRNN (GeneID 49860) #2 came out at: total luciferase, z-score 2.95; total luciferase, % of control 141; inactive.
With knock-down of CRNN (GeneID 49860) #3 the results were total luciferase, z-score 1.42; total luciferase, % of control 110; inactive.

Laid out differently: entries from further up
| target | siRNA no. | total luciferase, z-score | total luciferase, % of control | outcome |
| --- | --- | --- | --- | --- |
| TDRG1 (GeneID 732253) | 3 | 1.33 | 108 | inactive |
| LOC340089 (GeneID 340089) | 1 | -1.22 | 57.6 | inactive |
| LOC340089 (GeneID 340089) | 2 | 0.21 | 86.1 | inactive |
| LOC340089 (GeneID 340089) | 3 | -0.252 | 76.9 | inactive |
| MRTO4 (GeneID 51154) | 1 | -0.0325 | 81.2 | inactive |
